# Test results published in US20170312300A1, “Methods for Treating Cancer” (Fundacion Centro National de Investigaciones Oncolgicas …, priority 2014, published 2017).
# For at least one compound, name, drawing or mass did not settle the structure.
# Tested on: hURI-tetOFFhep mice
# Experiment: Rapamycin-containing diet in hURI-tetOFFhep mice
# Assay type: in vivo
# Conditions: 3-week-old mice supplied rapamycin-containing diet
compound,measurement,value
CO[C@H]1C[C@@H]2CC[C@@H](C)[C@@](O)(O2)C(=O)C(=O)N2CCCC[C@H]2C(=O)O[C@H]([C@H](C)C[C@@H]2CC[C@@H](O)[C@H](OC)C2)CC(=O)[C@H](C)/C=C(\C)[C@@H](O)[C@@H](OC)C(=O)[C@H](C)C[C@H](C)/C=C/C=C/C=C/1C [rapamycin],progression to preneoplastic abnormalities,continued
